No constants are given. Whether binding was seen depends on the method and setting. Binding seen in cells or lysates may run through a third protein. Some results given as binding are weak or reduced against the parent protein; the word gives no strength.
B1: STRBP (protein, UniProt Q96SI9 1-672)
chain: MRSIRSFANDDRHVMVKHSTIYPSPEELEAVQNMVSTVECALKHVSDWLDETNKGTKTEGETEVKKDEAGENYSKDQGGRTLCGVMRIGLVAKGLLIKDDMDLELVLMCKDKPTETLLNTVKDNLPIQIQKLTEEKYQVEQCVNEASIIIRNTKEPTLTLKVILTSPLIRDELEKKDGENVSMKDPPDLLDRQKCLNALASLRHAKWFQARANGLKSCVIVLRILRDLCNRVPTWAPLKGWPLELICEKSIGTCNRPLGAGEALRRVMECLASGILLPGGPGLHDPCERDPTDALSYMTIQQKEDITHSAQHALRLSAFGQIYKVLEMDPLPSSKPFQKYSWSVTDKEGAGSSALKRPFEDGLGDDKDPNKKMKRNLRKILDSKAIDLMNALMRLNQIRPGLQYKLLSQSGPVHAPVFTMSVDVDGTTYEASGPSKKTAKLHVAVKVLQAMGYPTGFDADIECMSSDEKSDNESKNETVSSNSSNNTGNSTTETSSTLEVRTQGPILTASGKNPVMELNEKRRGLKYELISETGGSHDKRFVMEVEVDGQKFRGAGPNKKVAKASAALAALEKLFSGPNAANNKKKKIIPQAKGVVNTAVSAAVQAVRGRGRGTLTRGAFVGATAAPGYIAPGYGTPYGYSTAAPAYGLPKRMVLLPVMKFPTYPVPHYSFF
B2: RBM15 (protein, UniProt Q96T37 1-977)
chain: MRTAGRDPVPRRSPRWRRAVPLCETSAGRRVTQLRGDDLRRPATMKGKERSPVKAKRSRGGEDSTSRGERSKKLGGSGGSNGSSSGKTDSGGGSRRSLHLDKSSSRGGSREYDTGGGSSSSRLHSYSSPSTKNSSGGGESRSSSRGGGGESRSSGAASSAPGGGDGAEYKTLKISELGSQLSDEAVEDGLFHEFKRFGDVSVKISHLSGSGSGDERVAFVNFRRPEDARAAKHARGRLVLYDRPLKIEAVYVSRRRSRSPLDKDTYPPSASVVGASVGGHRHPPGGGGGQRSLSPGGAALGYRDYRLQQLALGRLPPPPPPPLPRDLERERDYPFYERVRPAYSLEPRVGAGAGAAPFREVDEISPEDDQRANRTLFLGNLDITVTESDLRRAFDRFGVITEVDIKRPSRGQTSTYGFLKFENLDMSHRAKLAMSGKIIIRNPIKIGYGKATPTTRLWVGGLGPWVPLAALAREFDRFGTIRTIDYRKGDSWAYIQYESLDAAHAAWTHMRGFPLGGPDRRLRVDFADTEHRYQQQYLQPLPLTHYELVTDAFGHRAPDPLRGARDRTPPLLYRDRDRDLYPDSDWVPPPPPVRERSTRTAATSVPAYEPLDSLDRRRDGWSLDRDRGDRDLPSSRDQPRKRRLPEESGGRHLDRSPESDRPRKRHCAPSPDRSPELSSSRDRYNSDNDRSSRLLLERPSPIRDRRGSLEKSQGDKRDRKNSASAERDRKHRTTAPTEGKSPLKKEDRSDGSAPSTSTASSKLKSPSQKQDGGTAPVASASPKLCLAWQGMLLLKNSNFPSNMHLLQGDLQVASSLLVEGSTGGKVAQLKITQRLRLDQPKLDEVTRRIKVAGPNGYAILLAVPGSSDSRSSSSSAASDTATSTQRPLRNLVSYLKQKQAAGVISLPVGGNKDKENTGVLHAFPPCEFSQQFLDSPAKALAKSEEDYLVMIIVRGFGFQIGVRYENKKRENLALTLL
B3: EXOSC10 (protein, UniProt Q01780 1-885)
chain: MAPPSTREPRVLSATSATKSDGEMVLPGFPDADSFVKFALGSVVAVTKASGGLPQFGDEYDFYRSFPGFQAFCETQGDRLLQCMSRVMQYHGCRSNIKDRSKVTELEDKFDLLVDANDVILERVGILLDEASGVNKNQQPVLPAGLQVPKTVVSSWNRKAAEYGKKAKSETFRLLHAKNIIRPQLKFREKIDNSNTPFLPKIFIKPNAQKPLPQALSKERRERPQDRPEDLDVPPALADFIHQQRTQQVEQDMFAHPYQYELNHFTPADAVLQKPQPQLYRPIEETPCHFISSLDELVELNEKLLNCQEFAVDLEHHSYRSFLGLTCLMQISTRTEDFIIDTLELRSDMYILNESLTDPAIVKVFHGADSDIEWLQKDFGLYVVNMFDTHQAARLLNLGRHSLDHLLKLYCNVDSNKQYQLADWRIRPLPEEMLSYARDDTHYLLYIYDKMRLEMWERGNGQPVQLQVVWQRSRDICLKKFIKPIFTDESYLELYRKQKKHLNTQQLTAFQLLFAWRDKTARREDESYGYVLPNHMMLKIAEELPKEPQGIIACCNPVPPLVRQQINEMHLLIQQAREMPLLKSEVAAGVKKSGPLPSAERLENVLFGPHDCSHAPPDGYPIIPTSGSVPVQKQASLFPDEKEDNLLGTTCLIATAVITLFNEPSAEDSKKGPLTVAQKKAQNIMESFENPFRMFLPSLGHRAPVSQAAKFDPSTKIYEISNRWKLAQVQVQKDSKEAVKKKAAEQTAAREQAKEACKAAAEQAISVRQQVVLENAAKKRERATSDPRTTEQKQEKKRLKISKKPKDPEPPEKEFTPYDYSQSDFKAFAGNSKSKVSSQFDPNKQTPSGKKCIAAKKIKQSVGNKSMSFPTGKSDRGFRYNWPQR
B4: ZCCHC8 (protein, UniProt Q6NZY4 1-707)
chain: MAAEVYFGDLELFEPFDHPEESIPKPVHTRFKDDDGDEEDENGVGDAELRERLRQCEETIEQLRAENQELKRKLNILTRPSGILVNDTKLDGPILQILFMNNAISKQYHQEIEEFVSNLVKRFEEQQKNDVEKTSFNLLPQPSSIVLEEDHKVEESCAIKNNKEAFSVVGSVLYFTNFCLDKLGQPLLNENPQLSEGWEIPKYHQVFSHIVSLEGQEIQVKAKRPKPHCFNCGSEEHQMKDCPMPRNAARISEKRKEYMDACGEANNQNFQQRYHAEEVEERFGRFKPGVISEELQDALGVTDKSLPPFIYRMRQLGYPPGWLKEAELENSGLALYDGKDGTDGETEVGEIQQNKSVTYDLSKLVNYPGFNISTPRGIPDEWRIFGSIPMQACQQKDVFANYLTSNFQAPGVKSGNKRSSSHSSPGSPKKQKNESNSAGSPADMELDSDMEVPHGSQSSESFQFQPPLPPDTPPLPRGTPPPVFTPPLPKGTPPLTPSDSPQTRTASGAVDEDALTLEELEEQQRRIWAALEQAESVNSDSDVPVDTPLTGNSVASSPCPNELDLPVPEGKTSEKQTLDEPEVPEIFTKKSEAGHASSPDSEVTSLCQKEKAELAPVNTEGALLDNGSVVPNCDISNGGSQKLFPADTSPSTATKIHSPIPDMSKFATGITPFEFENMAESTGMYLRIRSLLKNSPRNQQKNKKASE

Protein sequences, listed by entry. Tags and fused reporters are not part of them.
UniProt P01106: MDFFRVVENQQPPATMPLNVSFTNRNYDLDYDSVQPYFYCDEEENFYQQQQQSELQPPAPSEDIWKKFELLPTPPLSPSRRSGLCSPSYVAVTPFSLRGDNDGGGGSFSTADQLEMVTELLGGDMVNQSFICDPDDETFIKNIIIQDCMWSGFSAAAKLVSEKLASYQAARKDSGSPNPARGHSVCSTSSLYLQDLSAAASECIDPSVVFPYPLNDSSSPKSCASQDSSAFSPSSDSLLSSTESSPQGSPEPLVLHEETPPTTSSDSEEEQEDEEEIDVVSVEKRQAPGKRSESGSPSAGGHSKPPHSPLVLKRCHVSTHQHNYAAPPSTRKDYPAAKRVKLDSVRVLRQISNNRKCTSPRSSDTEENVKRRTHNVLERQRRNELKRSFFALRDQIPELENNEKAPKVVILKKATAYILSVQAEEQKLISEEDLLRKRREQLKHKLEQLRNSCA

target: MYC (endogenous, in EtOH-treated control U2OS^MYC-Tet-On cells) (human (endogenous in U2OS)) (UniProt P01106); assay: co-IP

binding | Binder
binds | B1
binds | B2
binds | B3
binds | B4
